Our source for the IC50 values is ChEMBL document CHEMBL4359931, “Synthesis, biological evaluation and molecular docking studies of new amides of 4-bromothiocolchicine as anticancer agents” (Bioorg Med Chem, 2019).

For this experiment, the system named is LoVo. Briefly: Antiproliferative activity against human LoVo cells assessed as reduction in cell viability incubated for 120 hrs by MTT assay. In kind it is functional, cell-based. A general note: Tetrazolium assays rely on reduction of a dye to a coloured formazan, in cell work by metabolically active cells.

Molecules are shown by their SMILES.

Regarding `COc1cc2c(c(OC)c1OC)-c1ccc(OC)c(=O)cc1[C@@H](NC(C)=O)CC2` [COLCHICINE], the IC50 amounted to 108 nM.

Broadly, the IC50 is the midpoint of a concentration-inhibition curve.
